According to patent US7053044B1, “Artificial peptides having surface activity and the use thereof in the preparation of artificial surfactant” (Chiesi Farmaceutici S.p.A., priority 1999, dated 2006):
No constants are given. Whether binding was seen depends on the method and setting. Some entries that bind do so weakly or less than the wild type.

Target: SP-C(Leu)
Experiment: SDS-PAGE, self-association (oligomerisation)

FGIPSSPVLKRLLILLLLLLLILLLILGALLMGL [SP-C(Leu)]
binding: binds
